Test results from CN114773478A.
No constants are given. Whether binding was seen depends on the method and setting. Some entries that bind do so weakly or less than the wild type.

Molecular target: T1, 重组AFP抗原(爱必信生物，货号Abt-P-28) (UniProt P02771)
T1 sequence (looked up): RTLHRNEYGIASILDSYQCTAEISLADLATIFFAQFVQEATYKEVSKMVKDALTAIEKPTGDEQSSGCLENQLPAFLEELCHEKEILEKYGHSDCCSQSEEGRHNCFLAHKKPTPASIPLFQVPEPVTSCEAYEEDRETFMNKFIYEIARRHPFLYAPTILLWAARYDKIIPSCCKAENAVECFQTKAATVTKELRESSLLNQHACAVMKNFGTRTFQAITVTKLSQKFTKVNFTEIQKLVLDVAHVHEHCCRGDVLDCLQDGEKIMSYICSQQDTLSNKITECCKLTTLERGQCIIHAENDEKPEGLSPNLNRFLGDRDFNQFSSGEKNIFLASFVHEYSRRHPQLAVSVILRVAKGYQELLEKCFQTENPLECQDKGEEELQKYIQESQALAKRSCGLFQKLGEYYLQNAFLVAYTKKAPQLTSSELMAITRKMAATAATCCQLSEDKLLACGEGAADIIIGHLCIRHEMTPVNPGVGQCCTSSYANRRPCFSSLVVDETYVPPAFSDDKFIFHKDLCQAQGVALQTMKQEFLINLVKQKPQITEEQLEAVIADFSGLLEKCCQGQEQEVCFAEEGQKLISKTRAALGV
Assay: SPR, Biacore, AFP antigen coupled to chip, bispecific as analyte, 1:1 binding fit

binding: binds
B1: 抗AFP双特异性纳米抗体 1A6-(G4S)4-1E11 (bispecific antibody)
chain: QVQLQESGGALVQPGGSLKLSCAASESIFSFAAMGWYRQAPGKQRELVARITGGDNINYADSVKGRFTISKDNAKNTAYLQMNSLKPEDTAVYYCNGEGYGSSWFDDGKNYWGKGTQVTVSSGGGGSGGGGSGGGGSGGGGSQVQLQESGGGLVQPGGSLRVSCAASESIFSFAAMGWYRQAPGKQRELVARITGGDNINYADSVKGRFTISKDNAKNTVYLQMNSLKPEDTAVYYCNGEGYGSSWFDDGKNYWGKGTQVTVSS
